Data reported in PubChem BioAssay (EPA / NIEHS).
The inconclusive results got no clear call from the source; some entries with a clear call stand among them for comparison. For some of these results: Potencies of inconclusive entries are doubtful fits and often do not repeat. Activity calls are given as the source filed them. How the source made its calls: active means hit-call score of the fitted dose curve at least 0.9, where 1 is the maximum; inconclusive means response in the unintended direction; inactive means score below 0.9.

Legend:
[1] = ACEA_AR_agonist_AUC_viability: ACEA Biosciences xCELLigence Real-Time Cell Analysis on Androgen Receptor Agonism for Viability (AID 2283775);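 on AC50: viability read 80 hours after compound addition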
Method in brief: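 Read-out is area under the impedance curve at 80 h post-dose in 22Rv1 cells, with DMSO as baseline and signal loss taken as reduced viability. Compounds ran in duplicate from 100 uM final.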

[2] = ACEA_AR_antagonist_AUC_viability: ACEA Biosciences xCELLigence Real-Time Cell Analysis on Androgen Receptor Antagonism for Viability (AID 2283776);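 further: 22Rv1 human prostate cancer cells growing on impedance electrode plates; area under impedance growth curve at 80 h after dosing as viability; hits lower the growth signal relative to DMSO meaning cytotoxicity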
Method in brief: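 Impedance read-out (RT-CES): area under growth curve at 80 h post-dose, loss of signal scored vs DMSO baseline. 22Rv1 cells; 8-pt 1:4 series, top 100 uM final, ≤0.5% DMSO; biological duplicate.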

[3] = system: zebrafish Estrogen Receptor (ESR2A), gene 317734; test: ATG_zfER2a_XSP1: Attagene TRANS-FACTORIAL Multi-Species (XSP1) HepG2 Assay for zebrafish Estrogen Receptor (ESR2A) (AID 2283778)
Method in brief: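 HepG2 cells transiently transfected with GAL4-UAS reporter units driven by a zebrafish ESR2A–Gal4 chimera; 24 h compound exposure with 3 nM 6-alpha-fluorotestosterone present. Reporter mRNA measured by RT-PCR with fluorescent capillary electrophoresis, fitted positive versus DMSO.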

NC(=O)NN=Cc1ccc([N+](=O)[O-])o1
AC50 [1]: inconclusive: 6920 nM | AC50 [2]: inconclusive: 10900 nM

CCCCCC(C)OC(=O)COc1ccc(Cl)c2cccnc12 (configuration not stated)
AC50 [1]: inconclusive: 145 nM | AC50 [2]: inconclusive: 70.7 nM

CCCCCCCCN(C)CCCCCCCC
AC50 [1]: inconclusive: 65.8 nM | outcome [2]: inactive

Cc1ccc(C)c(OCCCC(C)(C)C(=O)O)c1
AC50 [1]: inconclusive: 30100 nM | outcome [2]: inactive

CC(C)CCCCCCOC(=O)C1CCCCC1C(=O)OCCCCCCC(C)C (configuration not stated)
AC50 [2]: inconclusive: 3.75 nM

Nc1ccc(S(=O)(=O)c2ccc(N)cc2)cc1
AC50 [2]: inconclusive: 0.184 nM

CC(C)c1ccc2c(C(C)C)cc(C(C)C)c(S(=O)(=O)O)c2c1
outcome [1]: inactive | AC50 [2]: inconclusive: 16600 nM

CCCC(=O)OCCC(C)C
AC50 [2]: inconclusive: 8.8 nM

CCOC(=O)COc1cc(-n2ncc(C(F)(F)F)c(C)c2=O)c(F)cc1Cl
outcome [2]: inactive

NC(CO)(CO)CO
AC50 [1]: inconclusive: 12.8 nM | AC50 [2]: inconclusive: 2600 nM

O=C(O)Cc1ccccc1Nc1c(Cl)cccc1Cl
AC50 [1]: active: 42100 nM | AC50 [2]: active: 50000 nM

C=CC(C)(CCC=C(C)C)OC(C)=O (configuration not stated)
AC50 [1]: inconclusive: 134 nM | AC50 [2]: inconclusive: 13.8 nM

OCC(CO)(CO)CO
AC50 [2]: inconclusive: 18.7 nM

CCCCCCCCCCO
AC50 [1]: inconclusive: 6.1 nM | outcome [2]: inactive

C=CC(=O)NC(C)(C)CS(=O)(=O)O
AC50 [2]: inconclusive: 107 nM

Nc1ccc(C(=O)O)cc1
AC50 [1]: inconclusive: 50000 nM | AC50 [2]: inconclusive: 7.25 nM

CCOC(=O)c1ccc(O)cc1
AC50 [1]: inconclusive: 95.2 nM | outcome [2]: inactive

CCCCC(CC)COC(=O)CCCCC(=O)OCc1ccccc1 (configuration not stated)
outcome [1]: inactive | outcome [2]: inactive

CCCCCCCC/C=C\CCCCCCCC(=O)O
outcome [2]: inactive

O=C1C(N(CO)C(=O)NCO)N(CO)C(=O)N1CO (configuration not stated)
outcome [1]: inactive | AC50 [2]: inconclusive: 16600 nM

CN(C)C(=O)NC1(c2ccccc2)CCN(CCC[C@]2(c3ccc(Cl)c(Cl)c3)CCCN(C(=O)c3ccccc3)C2)CC1
AC50 [2]: active: 16700 nM

CC(=O)CC(C)(C)O
outcome [1]: inactive | outcome [2]: inactive

C(=C(c1ccccc1)c1ccccc1)c1ccccc1
outcome [3]: inactive
